# Source: the supplement of paper PMC10849652
# Chains of the proteins cited; added tags and fusions are not shown. Lines headed by an entry give the natural chain unless they say otherwise; changes in a name come on top.
# UniProt P16591: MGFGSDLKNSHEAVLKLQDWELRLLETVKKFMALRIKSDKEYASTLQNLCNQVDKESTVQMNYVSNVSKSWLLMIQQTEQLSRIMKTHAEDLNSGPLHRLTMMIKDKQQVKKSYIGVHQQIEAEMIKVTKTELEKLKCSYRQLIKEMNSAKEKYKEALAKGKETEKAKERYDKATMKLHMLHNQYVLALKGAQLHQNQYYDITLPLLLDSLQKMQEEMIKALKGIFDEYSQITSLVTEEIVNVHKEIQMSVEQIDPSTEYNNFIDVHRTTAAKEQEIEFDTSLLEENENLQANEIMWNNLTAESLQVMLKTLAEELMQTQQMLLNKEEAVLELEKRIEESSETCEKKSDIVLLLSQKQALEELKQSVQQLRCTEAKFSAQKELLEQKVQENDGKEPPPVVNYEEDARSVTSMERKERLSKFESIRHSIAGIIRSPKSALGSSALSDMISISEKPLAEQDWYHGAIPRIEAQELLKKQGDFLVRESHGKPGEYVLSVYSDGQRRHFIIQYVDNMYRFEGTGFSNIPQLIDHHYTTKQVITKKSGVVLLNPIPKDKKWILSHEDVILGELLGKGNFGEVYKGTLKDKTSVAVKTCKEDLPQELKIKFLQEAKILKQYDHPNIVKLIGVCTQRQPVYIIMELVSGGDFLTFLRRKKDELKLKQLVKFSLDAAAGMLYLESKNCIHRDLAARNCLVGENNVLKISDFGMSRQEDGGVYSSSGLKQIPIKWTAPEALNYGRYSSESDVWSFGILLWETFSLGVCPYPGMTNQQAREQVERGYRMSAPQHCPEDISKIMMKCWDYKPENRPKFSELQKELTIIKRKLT
# UniProt Q96SL8: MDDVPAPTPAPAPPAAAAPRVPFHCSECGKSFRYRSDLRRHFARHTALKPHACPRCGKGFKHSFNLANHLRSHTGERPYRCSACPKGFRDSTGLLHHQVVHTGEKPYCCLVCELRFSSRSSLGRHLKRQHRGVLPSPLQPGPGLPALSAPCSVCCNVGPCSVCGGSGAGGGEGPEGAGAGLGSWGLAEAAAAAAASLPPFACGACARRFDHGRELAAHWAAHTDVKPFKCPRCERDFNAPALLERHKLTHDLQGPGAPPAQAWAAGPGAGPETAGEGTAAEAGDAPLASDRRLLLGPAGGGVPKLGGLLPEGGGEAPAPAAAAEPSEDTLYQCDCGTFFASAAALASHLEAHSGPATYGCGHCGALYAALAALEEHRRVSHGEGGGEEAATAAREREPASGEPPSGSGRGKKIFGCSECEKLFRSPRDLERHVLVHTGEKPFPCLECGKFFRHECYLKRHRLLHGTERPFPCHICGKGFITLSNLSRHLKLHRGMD
# UniProt Q5XKK7: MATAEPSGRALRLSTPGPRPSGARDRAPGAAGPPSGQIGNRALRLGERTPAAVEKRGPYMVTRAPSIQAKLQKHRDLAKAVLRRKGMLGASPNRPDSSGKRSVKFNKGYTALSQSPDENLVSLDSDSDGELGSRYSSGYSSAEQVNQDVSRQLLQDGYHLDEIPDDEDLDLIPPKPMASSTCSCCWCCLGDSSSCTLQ
# UniProt Q86XK2: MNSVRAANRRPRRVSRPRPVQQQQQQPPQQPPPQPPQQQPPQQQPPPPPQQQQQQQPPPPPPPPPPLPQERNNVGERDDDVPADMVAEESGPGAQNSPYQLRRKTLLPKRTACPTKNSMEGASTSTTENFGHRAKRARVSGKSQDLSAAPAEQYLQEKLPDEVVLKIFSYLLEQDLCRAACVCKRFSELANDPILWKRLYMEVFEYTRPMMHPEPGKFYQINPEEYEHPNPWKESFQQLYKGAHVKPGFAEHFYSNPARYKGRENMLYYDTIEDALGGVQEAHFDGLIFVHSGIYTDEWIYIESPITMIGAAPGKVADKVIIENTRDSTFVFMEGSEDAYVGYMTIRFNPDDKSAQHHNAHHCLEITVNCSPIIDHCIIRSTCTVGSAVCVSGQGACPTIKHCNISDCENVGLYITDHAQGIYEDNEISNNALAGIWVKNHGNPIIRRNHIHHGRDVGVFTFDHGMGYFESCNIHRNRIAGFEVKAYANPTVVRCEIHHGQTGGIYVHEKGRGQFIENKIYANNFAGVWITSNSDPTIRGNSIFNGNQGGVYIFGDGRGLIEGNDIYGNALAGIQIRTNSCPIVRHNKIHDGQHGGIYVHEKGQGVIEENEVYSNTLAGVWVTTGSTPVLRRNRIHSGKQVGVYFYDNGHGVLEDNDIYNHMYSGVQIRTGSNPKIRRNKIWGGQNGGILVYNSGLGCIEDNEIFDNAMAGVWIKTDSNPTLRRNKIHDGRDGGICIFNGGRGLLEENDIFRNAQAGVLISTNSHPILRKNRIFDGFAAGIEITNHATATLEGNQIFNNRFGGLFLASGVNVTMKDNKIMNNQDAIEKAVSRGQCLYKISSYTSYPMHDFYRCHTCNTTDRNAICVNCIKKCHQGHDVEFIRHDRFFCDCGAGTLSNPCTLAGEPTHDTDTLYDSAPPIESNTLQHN
# UniProt Q96C11: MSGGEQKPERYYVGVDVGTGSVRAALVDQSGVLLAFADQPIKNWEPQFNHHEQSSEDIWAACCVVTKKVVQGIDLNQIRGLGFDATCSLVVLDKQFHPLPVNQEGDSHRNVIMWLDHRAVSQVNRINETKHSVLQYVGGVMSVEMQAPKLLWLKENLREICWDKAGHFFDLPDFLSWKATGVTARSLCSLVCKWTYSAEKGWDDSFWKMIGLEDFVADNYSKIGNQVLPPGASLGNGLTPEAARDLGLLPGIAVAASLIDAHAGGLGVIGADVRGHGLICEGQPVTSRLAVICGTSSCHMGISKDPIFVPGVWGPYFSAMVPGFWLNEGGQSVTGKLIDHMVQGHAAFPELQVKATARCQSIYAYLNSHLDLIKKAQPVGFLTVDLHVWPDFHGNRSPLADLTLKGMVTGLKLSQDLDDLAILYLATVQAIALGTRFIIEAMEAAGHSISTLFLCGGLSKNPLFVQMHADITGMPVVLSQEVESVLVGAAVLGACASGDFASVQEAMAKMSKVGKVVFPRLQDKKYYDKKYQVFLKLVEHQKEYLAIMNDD
# UniProt B1AJZ9: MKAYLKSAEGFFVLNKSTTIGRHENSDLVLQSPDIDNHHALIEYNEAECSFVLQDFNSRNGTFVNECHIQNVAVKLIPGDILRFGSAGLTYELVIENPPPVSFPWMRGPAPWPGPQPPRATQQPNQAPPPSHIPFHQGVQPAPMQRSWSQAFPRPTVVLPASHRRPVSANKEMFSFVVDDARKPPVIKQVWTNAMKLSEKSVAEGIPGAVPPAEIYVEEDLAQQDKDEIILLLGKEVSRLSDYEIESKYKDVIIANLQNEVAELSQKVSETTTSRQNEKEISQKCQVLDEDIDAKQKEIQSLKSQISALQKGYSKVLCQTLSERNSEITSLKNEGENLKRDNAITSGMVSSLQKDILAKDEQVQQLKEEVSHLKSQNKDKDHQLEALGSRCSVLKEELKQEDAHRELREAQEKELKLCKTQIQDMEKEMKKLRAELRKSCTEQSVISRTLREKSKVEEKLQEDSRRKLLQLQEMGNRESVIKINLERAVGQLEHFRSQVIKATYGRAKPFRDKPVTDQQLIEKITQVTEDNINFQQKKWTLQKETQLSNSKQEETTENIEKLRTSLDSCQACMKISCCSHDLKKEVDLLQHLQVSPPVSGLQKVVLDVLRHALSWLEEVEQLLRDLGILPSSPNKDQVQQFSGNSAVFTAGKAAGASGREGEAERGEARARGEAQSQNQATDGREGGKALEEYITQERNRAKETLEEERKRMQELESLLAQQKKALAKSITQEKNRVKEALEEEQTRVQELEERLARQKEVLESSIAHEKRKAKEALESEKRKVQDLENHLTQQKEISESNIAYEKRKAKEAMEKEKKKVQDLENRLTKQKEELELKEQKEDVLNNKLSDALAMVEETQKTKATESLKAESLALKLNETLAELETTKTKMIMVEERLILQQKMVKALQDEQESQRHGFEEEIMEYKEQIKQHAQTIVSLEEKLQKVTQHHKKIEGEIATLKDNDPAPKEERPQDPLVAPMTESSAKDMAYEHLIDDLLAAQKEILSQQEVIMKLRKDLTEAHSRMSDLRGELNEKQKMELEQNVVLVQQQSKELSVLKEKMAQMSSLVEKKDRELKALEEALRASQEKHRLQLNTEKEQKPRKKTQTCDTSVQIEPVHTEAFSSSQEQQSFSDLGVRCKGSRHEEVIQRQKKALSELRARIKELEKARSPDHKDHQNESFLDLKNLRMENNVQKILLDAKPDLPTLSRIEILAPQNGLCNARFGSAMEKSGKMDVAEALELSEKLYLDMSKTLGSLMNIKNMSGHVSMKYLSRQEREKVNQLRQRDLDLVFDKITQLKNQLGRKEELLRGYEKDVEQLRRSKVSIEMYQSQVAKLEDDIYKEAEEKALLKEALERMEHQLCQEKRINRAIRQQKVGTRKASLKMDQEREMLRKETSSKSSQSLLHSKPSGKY
# UniProt Q9UKB1: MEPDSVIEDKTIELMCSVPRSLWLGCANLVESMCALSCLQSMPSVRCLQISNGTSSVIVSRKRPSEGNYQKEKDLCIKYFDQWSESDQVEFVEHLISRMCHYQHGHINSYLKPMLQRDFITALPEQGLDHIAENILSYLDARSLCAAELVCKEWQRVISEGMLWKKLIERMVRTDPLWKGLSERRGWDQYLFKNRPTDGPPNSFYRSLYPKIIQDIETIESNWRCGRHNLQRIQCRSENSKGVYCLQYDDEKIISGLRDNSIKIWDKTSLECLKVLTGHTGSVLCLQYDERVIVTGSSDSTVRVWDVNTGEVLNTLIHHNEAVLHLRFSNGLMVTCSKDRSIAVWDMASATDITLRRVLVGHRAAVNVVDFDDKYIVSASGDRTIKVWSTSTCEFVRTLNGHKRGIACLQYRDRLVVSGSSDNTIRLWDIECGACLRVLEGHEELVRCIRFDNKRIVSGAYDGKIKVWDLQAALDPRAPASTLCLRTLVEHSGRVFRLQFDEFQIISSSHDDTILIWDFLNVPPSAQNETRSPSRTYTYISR
# UniProt P17948, whole entry, looked up: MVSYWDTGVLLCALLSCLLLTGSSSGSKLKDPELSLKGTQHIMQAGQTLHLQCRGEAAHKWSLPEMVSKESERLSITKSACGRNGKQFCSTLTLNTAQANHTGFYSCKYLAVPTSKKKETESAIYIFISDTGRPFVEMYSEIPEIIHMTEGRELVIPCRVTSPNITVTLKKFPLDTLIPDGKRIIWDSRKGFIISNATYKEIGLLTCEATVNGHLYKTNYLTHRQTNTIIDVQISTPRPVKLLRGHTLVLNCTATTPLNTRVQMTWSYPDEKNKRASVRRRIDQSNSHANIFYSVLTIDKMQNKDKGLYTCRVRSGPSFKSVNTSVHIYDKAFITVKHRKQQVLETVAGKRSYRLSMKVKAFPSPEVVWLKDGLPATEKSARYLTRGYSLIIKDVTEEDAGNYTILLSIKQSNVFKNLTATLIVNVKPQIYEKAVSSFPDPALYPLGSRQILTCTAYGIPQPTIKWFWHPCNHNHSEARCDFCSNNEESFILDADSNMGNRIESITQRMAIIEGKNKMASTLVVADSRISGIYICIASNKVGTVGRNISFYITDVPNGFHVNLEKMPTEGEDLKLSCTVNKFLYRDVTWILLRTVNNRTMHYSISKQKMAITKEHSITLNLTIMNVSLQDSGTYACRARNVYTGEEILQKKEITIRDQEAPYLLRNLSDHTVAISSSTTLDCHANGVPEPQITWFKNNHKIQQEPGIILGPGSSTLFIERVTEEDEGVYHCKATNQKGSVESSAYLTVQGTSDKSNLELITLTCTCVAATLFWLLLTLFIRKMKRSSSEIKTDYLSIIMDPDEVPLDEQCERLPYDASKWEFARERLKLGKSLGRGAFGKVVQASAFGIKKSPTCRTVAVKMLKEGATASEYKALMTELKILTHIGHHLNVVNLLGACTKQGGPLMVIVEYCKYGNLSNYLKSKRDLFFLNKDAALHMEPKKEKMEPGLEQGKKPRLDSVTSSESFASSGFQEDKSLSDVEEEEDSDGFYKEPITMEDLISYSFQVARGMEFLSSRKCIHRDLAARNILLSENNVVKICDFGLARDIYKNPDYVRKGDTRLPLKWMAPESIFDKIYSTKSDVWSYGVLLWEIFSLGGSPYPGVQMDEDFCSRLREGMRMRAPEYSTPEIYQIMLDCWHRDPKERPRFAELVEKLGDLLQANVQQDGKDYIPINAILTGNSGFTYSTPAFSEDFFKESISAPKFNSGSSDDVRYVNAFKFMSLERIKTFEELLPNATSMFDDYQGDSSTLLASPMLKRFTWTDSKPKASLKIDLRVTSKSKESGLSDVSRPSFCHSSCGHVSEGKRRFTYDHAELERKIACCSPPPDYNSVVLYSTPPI
# UniProt Q9NVK5: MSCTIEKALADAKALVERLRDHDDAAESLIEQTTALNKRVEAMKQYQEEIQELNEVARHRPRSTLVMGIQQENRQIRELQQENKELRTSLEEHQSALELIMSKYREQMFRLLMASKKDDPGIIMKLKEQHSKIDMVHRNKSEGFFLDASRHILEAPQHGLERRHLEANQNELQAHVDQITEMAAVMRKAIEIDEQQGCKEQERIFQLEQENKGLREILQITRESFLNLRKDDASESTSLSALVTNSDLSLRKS
# This is one part of the list.
# Compound: CC1=C(C=C(C=C1)NC(=O)C2=CC(=CC=C2)C(C)(C)C#N)NC3=CC4=C(C=C3)N=CN(C4=O)C
# Experiment: log2 fold change, soluble protein after heating vs DMSO (PISA); higher = thermal stabilisation; K562 cells, 10 uM, 30 min; active = over 0.2 and 3.5 SD of the protein, either way, in both replicates (recomputed)
# Procedure, shortened: (§1)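 K562 cells at 2×10^6 cells/mL were treated with 10 μM compound for 30 min. Aliquots were heated for 3 min across 48°C-58°C, pooled, and extracted in PBS with 0.5% NP-40 at 4°C; soluble protein was the supernatant after 21,000xg for 90 min. Soluble protein was quantified by TMTpro 16plex LC-MS/MS with channel sums equalised, and reported as log2 fold change in thermal stability against DMSO controls, with values from duplicates.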
row,Target,log2 fold change
1,FAT4 (UniProt Q6V0I7),inactive: 0.057
2,FER (UniProt P16591),inactive: -0.035
3,FMNL1 isoform 3 (UniProt O95466),inactive: 0.205
4,FBXO44 (UniProt Q9H4M3),inactive: 0.119
5,FIZ1 (UniProt Q96SL8),inactive: -0.164
6,FAM219B (UniProt Q5XKK7),inactive: -0.115
7,FBXL8 (UniProt Q96CD0),inactive: -0.102
8,FBXL4 (UniProt Q9UKA2),inactive: -0.169
9,FAM76A isoform 3 (UniProt Q8TAV0),inactive: -0.01
10,FGB (UniProt P02675),inactive: -0.042
11,FHL1 isoform 4 (UniProt Q13642),inactive: -0.199
12,FBXO11 isoform 5 (UniProt Q86XK2),inactive: 0.006
13,FBRS (UniProt J3KNZ9),inactive: -0.229
14,FAM219A (UniProt Q8IW50),inactive: -0.021

# Compound: CC1=C(C=C(C=C1)NC(=O)C2=CC(=CC=C2)N(C)C)NC(=O)C3=CC=C(C=C3)O
# Experiment: as above
# Procedure, shortened: as §1
row,Target,log2 fold change
1,FAM53B (UniProt Q14153),inactive: 0.133
2,FGG (UniProt P02679),inactive: 0.067
3,FAM222B (UniProt Q8WU58),inactive: -0.062
4,FAT4 (UniProt Q6V0I7),inactive: 0.043
5,FAT2 (UniProt Q9NYQ8),inactive: -0.035
6,FGGY isoform 3 (UniProt Q96C11),inactive: -0.091
7,FBXO44 (UniProt Q9H4M3),inactive: -0.029
8,FHAD1 isoform 3 (UniProt B1AJZ9),inactive: 0.014
9,FNIP1 (UniProt Q8TF40),inactive: 0.248
10,FBXO9 (UniProt Q9UK97),inactive: 0.009
11,FGB (UniProt P02675),inactive: 0.225
12,FBXW11 (UniProt Q9UKB1),inactive: 0.131
13,FBRSL1 (UniProt Q9HCM7),inactive: 0.086

# Compound: CC1=CC=C(C=C1)SC2=C3C=C(SC3=CN=C2)C(=O)N
# Experiment: as above
# Procedure, shortened: as §1
row,Target,log2 fold change
1,FGG (UniProt P02679),inactive: -0.093
2,FAM222B (UniProt Q8WU58),inactive: -0.081
3,FAT2 (UniProt Q9NYQ8),inactive: -0.113
4,FGGY isoform 3 (UniProt Q96C11),inactive: 0.103
5,FLT1 (UniProt P17948),inactive: -0.139
6,FIG4 (UniProt Q92562),inactive: 0.014
7,FAM219B (UniProt Q5XKK7),inactive: -0.04
8,FHAD1 isoform 3 (UniProt B1AJZ9),inactive: 0.185
9,FNIP1 (UniProt Q8TF40),inactive: -0.208
10,FAM76A isoform 3 (UniProt Q8TAV0),inactive: -0.049
11,FARP2 (UniProt O94887),inactive: -0.058
12,FGFR1OP2 isoform 2 (UniProt Q9NVK5),inactive: -0.115
13,FBXO9 (UniProt Q9UK97),inactive: 0.064
14,FHL1 isoform 4 (UniProt Q13642),inactive: 0.042
15,FBXO11 isoform 5 (UniProt Q86XK2),inactive: 0.037
16,FBXW11 (UniProt Q9UKB1),inactive: 0.032
17,FBRS (UniProt J3KNZ9),inactive: 0.403
18,FAM219A (UniProt Q8IW50),inactive: -0.031
